From article PMC12523879 come the findings set out here.

The chains behind the UniProt entries cited, without tags or fusion partners. Residues count along the entry.
UniProt P59665, 65-94: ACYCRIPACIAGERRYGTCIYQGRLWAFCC

For at least one entry, the source does not settle the construct or the ends of the probe. Where cells or extracts were used, other partners may take part. A weaker result is weaker than the reference pair of the same experiment. At least one verdict rests on a figure or table, not on a statement of the authors. For some assays here: Protein sequences can lack the tags named with them.

Series [1] has as its target Neutrophil defensin 1 (Homo sapiens) (UniProt P59665). Kind of series: pull-down with LC-MS/MS. The following applies: yeast RNA masking, 5' thiol C6 (5ThioMC6-D), Lysate in 0.1% DDM with masking yeast RNA, 30 min with aptamer-coated gold magnetic particles, five phosphate buffer washes, elution in 8 M urea, protein in an extract, label: immobilized on gold-coated magnetic particles, single-stranded DNA.

In series [2] the target is T1, Peroxiredoxin-2 (Homo sapiens) (UniProt P32119).
T1 sequence (looked up, limits assumed): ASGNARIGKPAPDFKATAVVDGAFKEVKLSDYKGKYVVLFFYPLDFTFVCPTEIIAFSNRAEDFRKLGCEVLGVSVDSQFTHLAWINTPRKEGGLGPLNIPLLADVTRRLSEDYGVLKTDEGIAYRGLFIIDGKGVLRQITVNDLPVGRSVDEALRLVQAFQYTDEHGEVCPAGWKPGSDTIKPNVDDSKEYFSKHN
Kind of series: pull-down with LC-MS/MS. The following applies: CTC lysate, yeast RNA masking, 5' thiol C6 (5ThioMC6-D), Lysate in 0.1% DDM with masking yeast RNA, 30 min with aptamer-coated gold magnetic particles, five phosphate buffer washes, elution in 8 M urea, protein in an extract, label: immobilized on gold-coated magnetic particles, single-stranded DNA.

As for “CTCCTCTGACTGTAACCACGAGAGAGAGAGAGAGAGAGAGAGAGAGAGAGAGAGAGAGAG [AG-repeat control (thiolated primer + AG repeats)]”, the binding result was “binds more weakly” in series [1] (CTC lysate, protein predominant in LC-17 samples over controls) and “binds more weakly” in series [2] (protein predominant in LC-17 samples over controls).
Turning to “CTCCTCTGACTGTAACCACGCTTTTGTCTTTAGCCGAATTTTACTAAGCCGGGCTGATCAGCATAGGTAGTCCAGAAGCC [LC-17]”, the binding result in series [1] (CTC lysate), in series [1] (lung cancer cell culture lysate) and in series [2] was “binds” in each case.
